Data on two substances can be found in article PMC5161529.

Chains of the proteins cited; added tags and fusions are not shown. Lines headed by an entry give the natural chain unless they say otherwise; changes in a name come on top.
UniProt P25116: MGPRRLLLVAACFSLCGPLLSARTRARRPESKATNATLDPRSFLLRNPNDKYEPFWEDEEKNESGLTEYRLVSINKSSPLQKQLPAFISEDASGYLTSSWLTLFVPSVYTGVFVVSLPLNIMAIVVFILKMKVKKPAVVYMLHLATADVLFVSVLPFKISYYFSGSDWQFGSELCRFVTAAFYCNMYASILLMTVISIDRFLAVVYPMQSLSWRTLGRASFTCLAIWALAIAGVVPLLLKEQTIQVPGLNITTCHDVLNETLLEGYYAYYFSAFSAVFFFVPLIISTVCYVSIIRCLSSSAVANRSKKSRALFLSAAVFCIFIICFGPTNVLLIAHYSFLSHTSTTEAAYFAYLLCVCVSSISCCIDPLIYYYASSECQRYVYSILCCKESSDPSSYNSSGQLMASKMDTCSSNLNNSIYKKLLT
UniProt P30558: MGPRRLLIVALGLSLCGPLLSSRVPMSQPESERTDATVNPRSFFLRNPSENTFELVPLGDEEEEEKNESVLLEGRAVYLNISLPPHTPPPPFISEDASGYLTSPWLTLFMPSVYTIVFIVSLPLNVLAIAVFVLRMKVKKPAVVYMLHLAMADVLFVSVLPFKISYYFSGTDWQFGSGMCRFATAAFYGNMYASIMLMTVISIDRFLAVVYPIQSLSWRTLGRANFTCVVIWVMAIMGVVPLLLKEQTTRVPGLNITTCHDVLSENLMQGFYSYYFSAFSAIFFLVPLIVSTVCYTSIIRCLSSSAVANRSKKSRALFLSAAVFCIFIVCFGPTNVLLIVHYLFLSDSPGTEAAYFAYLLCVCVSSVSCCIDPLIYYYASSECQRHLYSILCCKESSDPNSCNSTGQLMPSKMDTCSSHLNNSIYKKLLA

These are yes or no findings as the source states them, for the method shown. Binding seen in cells or lysates may run through a third protein. For part of these data: Binding calls can cover weak binding; strength is not graded here.

Assay [1] has as its target T1, TGFβRII (mouse (endogenous in J1 mESCs)) (UniProt Q62312).
T1 sequence: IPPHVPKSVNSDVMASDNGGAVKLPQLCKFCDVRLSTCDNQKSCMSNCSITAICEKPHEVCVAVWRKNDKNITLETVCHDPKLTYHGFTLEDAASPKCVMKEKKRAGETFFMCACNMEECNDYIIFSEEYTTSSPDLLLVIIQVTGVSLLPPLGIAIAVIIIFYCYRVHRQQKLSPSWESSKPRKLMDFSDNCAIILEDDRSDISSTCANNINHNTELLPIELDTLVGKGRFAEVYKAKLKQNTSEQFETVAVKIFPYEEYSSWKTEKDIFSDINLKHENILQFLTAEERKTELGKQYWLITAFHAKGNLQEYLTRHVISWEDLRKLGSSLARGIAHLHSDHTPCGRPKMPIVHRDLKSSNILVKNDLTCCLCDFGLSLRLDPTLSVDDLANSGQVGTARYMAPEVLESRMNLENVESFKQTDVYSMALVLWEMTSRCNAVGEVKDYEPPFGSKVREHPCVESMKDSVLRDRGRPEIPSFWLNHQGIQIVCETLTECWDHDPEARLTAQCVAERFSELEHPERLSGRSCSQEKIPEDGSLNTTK
The assay can be described thus: co-IP; mESCs transduced with adenovirus encoding FLAG-PAR1, modified RIPA buffer; IP with rabbit anti-TGFβRII antibody; blots with mouse anti-FLAG, anti-TGFβRII, goat anti-TGFβRI.

Assay [2] has as its target T1, TGFβRII (mouse (endogenous in J1 mESCs)). The assay can be described thus: condition: only cells stimulated with PAR1-AP (15 μM); co-IP; as a1, mESCs stimulated with PAR1-AP (15 μM); IP with mouse anti-TGFβRII antibody; blot for PAR1.
Assay [3] shares this target. The assay can be described thus: co-IP; endogenous proteins in lysates (modified RIPA buffer) of wild-type or Par1-/- mESCs, or mESCs given PBS, PAR1-AP or TGF-β1 (10 ng/mL); IP with mouse anti-TGFβRII antibody and protein A/G Sepharose; blots for PAR1, TGFβRI, TGFβRII.

“FLAG-tagged human PAR1 (adenovirus, in mESCs) (from UniProt P25116) (receptor)”: the binding entry in assay [1] is listed as “binds”.

For the substance “PAR1 (Protease Activated Receptor 1) (from UniProt P30558)”, the binding result in assay [2] was “no binding”; in assay [3], “binds”.
